Experimental data published in PMC6882875.

Key:
[1] = tested on: T1, AraQ (Bifidobacterium breve UCC2003); assay: EMSA; conditions: 150 nM protein, EMSA: binding buffer stock 80 mM Tris-HCl pH 8.0, 20 mM MgCl2, 2 mM DTT, 4 mM EDTA, 400 mM KCl, 40% glycerol (final dilution not stated), poly(dI-dC) 0.05 ug/ul, recombinant protein, protein details: C-terminal His10, label: 5' IRD700, probe letters rebuilt from the primers and the genome
T1 sequence (looked up, limits assumed): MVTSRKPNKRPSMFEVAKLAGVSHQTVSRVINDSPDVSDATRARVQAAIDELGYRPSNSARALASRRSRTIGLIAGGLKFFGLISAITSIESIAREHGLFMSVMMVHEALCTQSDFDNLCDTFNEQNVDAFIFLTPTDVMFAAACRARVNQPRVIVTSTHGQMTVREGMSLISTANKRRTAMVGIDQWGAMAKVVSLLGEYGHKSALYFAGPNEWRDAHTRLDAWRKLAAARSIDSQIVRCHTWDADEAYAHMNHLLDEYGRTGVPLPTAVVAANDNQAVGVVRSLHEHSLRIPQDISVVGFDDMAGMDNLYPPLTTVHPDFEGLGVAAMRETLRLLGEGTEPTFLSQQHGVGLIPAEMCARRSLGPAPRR

[2] = tested on: T2, MalR1 (Bifidobacterium breve UCC2003); assay: EMSA; conditions: 150 nM protein; EMSA: binding buffer stock 80 mM Tris-HCl pH 8.0, 20 mM MgCl2, 2 mM DTT, 4 mM EDTA, 400 mM KCl, 40% glycerol (final dilution not stated); poly(dI-dC) 0.05 ug/ul; recombinant protein; residues 1-338; protein details: C-terminal His10; label: 5' IRD700; probe letters rebuilt from the primers and the genome; counted as no binding
T2 sequence (looked up): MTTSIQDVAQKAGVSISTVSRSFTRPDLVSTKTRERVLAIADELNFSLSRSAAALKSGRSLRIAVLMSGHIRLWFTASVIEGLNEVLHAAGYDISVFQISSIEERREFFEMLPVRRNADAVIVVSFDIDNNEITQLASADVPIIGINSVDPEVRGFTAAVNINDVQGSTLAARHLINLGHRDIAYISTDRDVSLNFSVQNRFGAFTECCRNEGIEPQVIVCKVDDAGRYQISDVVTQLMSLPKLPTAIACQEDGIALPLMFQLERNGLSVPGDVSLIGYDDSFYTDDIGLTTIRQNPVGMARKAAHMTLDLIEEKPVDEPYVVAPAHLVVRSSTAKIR

| Sequence | binding signal ([1]; counted as no binding) [% bound] | binding signal [2] [% bound] | binding result [1] |
| --- | --- | --- | --- |
| CGCACCTCCTTCCACGCTGTCACCAGTGTACGTTACCTGTACCGAAATCAATCCAAAAAACAGTGTTCATGTGAAATTCACTGCGTATTTGCGGATTAAGGGGCTGCGGACATTTTCTTGGAGATAATCACGCAGCCATTCCTTGGCTTTGACGATATTGTACCGGGCTCATCCAACCAAGTGACTGTTCCCGTTGTCTATTTGTAAGTGCAACATCCTTGTTCTCGGCTGATTCTAGCGGTTCGTCGGCGAATGCCTCGGCGGGGGTGCGCTAGCCGAGCACTCGCATGGGCCTGTTGTCGGTTTCGTCGACGATCTCCTGCAGTTCGCGTGCCATGGAGGGGGCGACGGGCGTGCGTTTGGGCGGGTGGCGGCGGATCATGCCGTTCCTGTTCTCGTTGCCGCCGCGCCGCCACGAGCTGTACGGGTCGGCGAAATACGCGGCCATGCCCGGTTCGTCGCGCAACTCGGCGTGCCGACCGTGGACGCATGCCGTCCCGGCATCATGGCTATGCGGCGCACGCTCGCCCCGTTGCCCATCTCAATCTGGATGACCTGCCGTTCCTCTTCCGACAGGTGCGAATACACCTGGCCCAAGGCGCAACACCCCTCCGTTTGGCTATCCGGACAATCTCCAATCTAACGG (double strand) [glgP2 promoter] | 0 | 0 | – |
| GCCAGCCTACTTTCTCCTCCTTGAGCACACCCGCACTACTGCGTGCGAGTGGTCCGAATTTGGGATTGTTCAGTCTCCTCAGTGCTGAATAGCACCAAATCGAACCGGTTTAAGGTTACCATACCACGCGTATGACCGATGGTCAAACGTTGTCACAGAAAGCGTGTCCATCACTCCTTCCTCGCTGCCTAGGCACAGGGCAAAATGCTGGAAATACTGATTTTTGGCATTTCCGATGCAGAATAACACATATGATAACGTTGTCTTATCGACTGCTCAACACATGGTCGACGCCGTCCGCGTTTATTGTTGTGTCATAGACGCATCTCACTGCAAAGGAGACCGGCATGG (double strand) [malG2 (F2) promoter] | – | 0 | binds |

Where a protein sequence is shown, tags need not be part of it. For some of these results: The exact form of at least one protein or probe is not confirmed.
